Assay results reported in patent US20240228562A1, “NOVEL LIPOCALIN MUTEINS SPECIFIC FOR CONNECTIVE TISSUE GROWTH FACTOR (CTGF)” (PIERIS PHARMACEUTICALS GMBH, priority 2021, published 2024).
Where a chain is given by its changes, count along the chain named. These are yes or no findings as the source states them, for the method shown. Some results given as binding are weak or reduced against the parent protein; the word gives no strength. For part of these data: Tags and fused reporters may be left off the sequences shown.

Sequences of proteins named here, by UniProt entry; tags and fusion partners are left off. A change or cut given only in a name is not applied to a line headed by its entry. A line that says so, or that is headed by a name, gives the form on record, which may keep a tag or linker. Residues count along the entry.
UniProt P29279, residues 27-349: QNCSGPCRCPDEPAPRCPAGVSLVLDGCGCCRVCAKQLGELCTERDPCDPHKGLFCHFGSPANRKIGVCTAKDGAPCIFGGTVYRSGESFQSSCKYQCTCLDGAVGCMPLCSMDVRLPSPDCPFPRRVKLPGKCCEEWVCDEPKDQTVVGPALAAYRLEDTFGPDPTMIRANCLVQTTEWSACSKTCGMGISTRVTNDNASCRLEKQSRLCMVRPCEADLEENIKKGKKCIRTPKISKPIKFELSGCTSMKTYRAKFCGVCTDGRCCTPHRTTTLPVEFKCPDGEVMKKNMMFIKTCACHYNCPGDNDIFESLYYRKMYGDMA
cynomolgus CTGF (I7G525, form named): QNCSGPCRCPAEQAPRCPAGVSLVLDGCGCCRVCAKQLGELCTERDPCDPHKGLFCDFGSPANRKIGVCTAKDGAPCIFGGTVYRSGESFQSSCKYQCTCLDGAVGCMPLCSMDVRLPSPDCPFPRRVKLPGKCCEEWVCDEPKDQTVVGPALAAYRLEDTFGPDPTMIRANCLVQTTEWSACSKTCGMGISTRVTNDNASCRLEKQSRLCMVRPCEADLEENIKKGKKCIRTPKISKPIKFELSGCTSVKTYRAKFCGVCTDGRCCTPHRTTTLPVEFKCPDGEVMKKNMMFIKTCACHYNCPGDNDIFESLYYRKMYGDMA
UniProt P29268, residues 26-348: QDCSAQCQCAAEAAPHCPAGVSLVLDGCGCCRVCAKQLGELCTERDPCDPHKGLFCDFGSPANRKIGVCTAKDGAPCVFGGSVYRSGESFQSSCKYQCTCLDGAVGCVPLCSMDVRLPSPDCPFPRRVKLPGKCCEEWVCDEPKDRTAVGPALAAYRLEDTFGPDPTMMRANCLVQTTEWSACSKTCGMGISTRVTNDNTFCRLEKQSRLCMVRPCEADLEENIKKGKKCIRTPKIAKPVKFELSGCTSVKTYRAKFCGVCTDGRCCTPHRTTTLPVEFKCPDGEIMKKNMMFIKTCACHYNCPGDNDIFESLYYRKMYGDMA

B1: lipocalin mutein of SEQ ID NO: 23 (designed binder)
chain: QDSTSDLIPAPPLSKVPLQQNFQDNQFQGKWYVVGVAGNAILRPDKQPAKMFATIYELKEDKSYDVTSVRFEAKSCKYTIKTFVPGSQPGEFTSGQIKSAPGQTSTLVRVVSTNYNQHAMVFFKHVSQNREIFVITLYGRTKELTSELKENFIRFSKSLGLPENHIVFPVPIDQCIDG
B2: lipocalin mutein of SEQ ID NO: 7 (designed binder)
chain: QDSTSDLIPAPPLSKVPLQQNFQDNQFHGKWYVVGLAGNYGLRTDKRPSKMFATIYELKEDKSYDVTSVRFEQERCHYTIRTFVPGSQPGEFTTGSIKSRPGQTSSLVRVVSTNYNQHAMVFFKSVIQNREYFAITLYGRTKELTSELKENFIRFSKSLGLPENHIVFPVPIDQCIDGSAWSHPQFEK
B3: lipocalin mutein of SEQ ID NO: 3 (designed binder)
chain: QDSTSDLIPAPPLSKVPLQQNFQDNQFHGKWYVVGRAGNNRLREDKDPPKMWATIYELKEDKSYNVTHVHFMTKKCRYIIDTFVPGSQPGEFTLGAIKSGPGMTSPLVRIVSTNYNQHAMVFFKWVNQNREWFTITLYGRTKELTSELKENFIRFSKSLGLPENHIVFPVPIDQCIDGSAWSHPQFEK
B4: lipocalin mutein of SEQ ID NO: 9 (designed binder)
chain: QDSTSDLIPAPPLSKVPLQQNFQDNQFHGKWYVVGLAGNKILRIDKQPAKMFATIYELKEDKSYDVTSVRFEARSCSYTIKTFVPGSQPGEFTAGNIKSAPGQTSTLVRVVSTNYNQHAMVFFKHVSQNRETFVITLYGRTKELTSELKENFIRFSKSLGLPENHIVFPVPIDQCIDGSAWSHPQFEK
B5: lipocalin mutein of SEQ ID NO: 25 (designed binder)
chain: QDSTSDLIPAPPLSKVPLQQNFQDNQFHGKWYVVGMAGNFRLREDKDPSKMGATIYELKEDKSYNVTQVQFDDKKCLYVIETFVPGSQPGEFTLGAIKSFPGFTSQLVRVVSTNYNQHAMVFFKKVYQNREVFWITLYGRTKELTSELKENFIRFSKSLGLPENHIVFPVPIDQCIDGSAWSHPQFEK
B6: lipocalin mutein of SEQ ID NO: 29 (designed binder)
chain: QDSTSDLIPAPPLSKVPLQQNFQDNQFHGKWYVVGWAGNIKLREDKDPFKMSATIYELKEDKSYNVTEVVFEQKKCHYIIKTFVPGSQPGEFTLGDIKSPPGETSSLVRVVSTNYNQHAMVFFKKVFQNREFFWITLYGRTKELTSELKENFIRFSKSLGLPENHIVFPVPIDQCIDGSAWSHPQFEK
B7: lipocalin mutein of SEQ ID NO: 15 (designed binder, not shown: small tags and cut ends)
chain: B1 chain with V36L, P44E, S94A, Q96Y, S127T
B8: fusion protein of SEQ ID NO: 74 (designed binder, not shown: small tags and cut ends)
chain: QDSTSDLIPAPPLSKVPLQQNFQDNQFQGKWYVVGLAGNAILREDKQPAKMFATIYELKEDKSYDVTSVRFEAKSCKYTIKTFVPGSQPGEFTAGYIKSAPGQTSTLVRVVSTNYNQHAMVFFKHVTQNREIFVITLYGRTKELTSELKENFIRFSKSLGLPENHIVFPVPIDQCIDGGGGGSGGGGSGGGGSQDSTSDLIPAPPLSKVPLQQNFQDNQFQGKWYVVGWAGNVKLREDKQPQKMSATIYELKEDKSYDVTEVVFEQKKCHYIIKTFVPGSQPGEFTAGDIKSPPGYTSSLVRVVSTNYNQHAMVFFKKVSQNREFFWITLYGRTKELTSELKENFIRFSKSLGLPENHIVFPVPIDQCIDG
B9: fusion protein of SEQ ID NO: 76 (designed binder, not shown: small tags and cut ends)
chain: B8 chain with Q242L
B10: lipocalin mutein of SEQ ID NO: 20 (designed binder, not shown: small tags and cut ends)
chain: QDSTSDLIPAPPLSKVPLQQNFQDNQFQGKWYVVGLAGNAILREDKQPAKMFATIYELKEDKSYDVTSVRFEAKSCSYTIKTFVPGSQPGEFTAGNIKSAPGQTSTLVRVVSTNYNQHAMVFAKAVQLNREHFFITLYGRTKELTSELKENFIRFSKSLGLPENHIVFPVPIDQCIDG
B11: lipocalin mutein of SEQ ID NO: 5 (designed binder, not shown: small tags and cut ends)
chain: QDSTSDLIPAPPLSKVPLQQNFQDNQFQGKWYVVGKAGNALREDKEPPKMWATIYELKEDKSYDVTHVHFLTKKCKYLIDTFVPGSQPGEFTIGAIKSGPGLTSPLVRVVSTNYNQHAMVFFKWVSQNREWFTITLYGRTKELTSELKENFIRFSKSLGLPENHIVFPVPIDQCIDG
B12: lipocalin mutein of SEQ ID NO: 22 (designed binder, not shown: small tags and cut ends)
chain: B1 chain with V36I, P44V, K77V, S94A, Q96N
B13: lipocalin mutein of SEQ ID NO: 6 (designed binder, not shown: small tags and cut ends)
chain: QDSTSDLIPAPPLSKVPLQQNFQDNQFQGKWYVVGRAGNNQLREDKSPPKMWATIYELKEDKSYDVTHVHFSTKKCRYIIDTFVPGSQPGEFTAGAIKSGPGLTSPLVRVVSTNYNQHAMVFFKWVTQNREWFTITLYGRTKELTSELKENFIRFSKSLGLPENHIVFPVPIDQCIDG
B14: lipocalin mutein of SEQ ID NO: 10 (designed binder, not shown: small tags and cut ends)
chain: B10 chain with A123W, A125S, Q127A, L128G, N129T, H132S, F134N, T136A
B15: lipocalin mutein of SEQ ID NO: 13 (designed binder, not shown: small tags and cut ends)
chain: B1 chain with V36L, P44E, Q47Y, A73N, K77V, I80S, S94T, Q96N, I132F
B16: lipocalin mutein of SEQ ID NO: 17 (designed binder, not shown: small tags and cut ends)
chain: B1 chain with V36L, P44T, K77V, I80S, S94A, Q96N, I132F
B17: lipocalin mutein of SEQ ID NO: 18 (designed binder, not shown: small tags and cut ends)
chain: B1 chain with V36I, P44D, Q47Y, A73N, K77I, S94H, Q96N, A100H

target: human CTGF (construct not stated) (human) (UniProt P29279); assay: ELISA, coated human CTGF

binding, binds:
B1
B2
B3
B4
B5
B6
B7
B8
B9

target: cynomolgus CTGF (cynomolgus) (UniProt I7G525); assay: SPR (Biacore); B = binding without determination of kinetics constants

binding, binds:
B1

target: mouse CTGF (Abbexa) (mouse) (UniProt P29268); assay: as above

binding, binds:
B10
B11
B12
B1
B13
B2
B3
B14
B15
B16
B17
